According to paper PMC11860778:
Results are given in words; binding and its absence hold for the method and conditions named. Binding seen in cells or lysates may run through a third protein. Some binding calls cover weakened binding; strength is not graded here. Tags and fused reporters may be left off the sequences shown.

Chains of the proteins cited; added tags and fusions are not shown. Residues count along the entry.
UniProt Q10589, residues 1-161: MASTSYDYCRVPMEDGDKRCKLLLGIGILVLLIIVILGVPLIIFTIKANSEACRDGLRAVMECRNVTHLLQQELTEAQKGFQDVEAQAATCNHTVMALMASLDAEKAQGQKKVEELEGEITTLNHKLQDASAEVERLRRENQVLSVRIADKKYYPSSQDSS

Molecular target: T1, OTUD1 (overexpressed, untagged plasmid pCMV3-OTUD1) (human) (UniProt Q5VV17)
T1 sequence: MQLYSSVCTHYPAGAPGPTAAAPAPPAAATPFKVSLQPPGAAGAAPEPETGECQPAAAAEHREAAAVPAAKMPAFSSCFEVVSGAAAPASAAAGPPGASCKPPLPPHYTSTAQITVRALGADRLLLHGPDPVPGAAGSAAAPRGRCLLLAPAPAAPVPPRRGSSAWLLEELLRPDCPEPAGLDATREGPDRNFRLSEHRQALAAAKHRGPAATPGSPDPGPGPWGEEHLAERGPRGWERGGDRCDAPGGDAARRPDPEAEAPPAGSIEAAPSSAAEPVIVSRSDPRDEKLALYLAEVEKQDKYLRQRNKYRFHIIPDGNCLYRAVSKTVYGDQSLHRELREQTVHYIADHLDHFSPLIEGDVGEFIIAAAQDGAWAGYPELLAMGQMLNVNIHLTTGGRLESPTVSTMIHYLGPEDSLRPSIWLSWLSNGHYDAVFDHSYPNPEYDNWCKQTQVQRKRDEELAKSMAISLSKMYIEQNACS
Assay: co-IP; HEK293T co-transfected with OTUD1 and HA-BST-2; OTUD1 immunoprecipitated with OTUD1 antibody for 6 h, protein A/G beads overnight; Western blot for HA-BST-2

binding: binds
Substance: HA-BST-2 (bone marrow stromal cell antigen 2) (from UniProt Q10589 1-161)
